Measured data: PubChem BioAssay AID602196 (INSERM, 2012)
Aim: 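Knock-downs that protect lung cancer cells from cisplatin or sensitise them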. Cells: human A549 lung cancer cells. Reagents: siRNA pair against human genes. Time to read-out: 48 h transfection before cisplatin; time from cisplatin to read-out not stated. Conditions: cisplatin at a dose killing half of control-siRNA cells; exact dose and duration not given. Measured: 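Cisplatin cell death as a shift from the 50% death seen with control siRNA; siRNAs toxic or growth-blocking alone scored 0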. Scale: two-siRNA summed score (-2 to +2): higher = both siRNAs protect from cisplatin killing; -2 means both sensitise; mean protection from cisplatin (shift in death) and protection from cisplatin (shift in death), siRNA C and protection from cisplatin (shift in death), siRNA D: higher = protection from cisplatin killing. Active means: 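Each siRNA scores 0 if harmful alone by LDH or WST-1, otherwise +1 if it reduces and -1 if it increases cisplatin killing; a gene is active when both siRNAs agree (sum +2 or -2)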. Calls: active = both siRNAs shift cisplatin killing the same way; inactive = no consistent shift, or siRNA harmful alone.
In all, the deposit lists about 23,000 reagents; below is a part drawn at random. 455 of them (2%) count as active. 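Active includes both protection and sensitisation; some change values fall well beyond the stated -50 to +50 range.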 The record does not give: the amount of reagent.

| gene knocked down | two-siRNA summed score (-2 to +2) | mean protection from cisplatin (shift in death) (%) | protection from cisplatin (shift in death), siRNA C (%) | protection from cisplatin (shift in death), siRNA D (%) | Call |
| --- | --- | --- | --- | --- | --- |
| KCTD14 (GeneID 65987) | 0 | 0.4 | -0.8 | 1.6 | inactive |
| TOLLIP (GeneID 54472) | -1 | -18.3 | -14 | -22.6 | inactive |
| SGCD (GeneID 6444) | -1 | -3.6 | -17.4 | 10.2 | inactive |
| PROK1 (GeneID 84432) | 1 | 14.9 | 8.7 | 21.1 | inactive |
| CCND3 (GeneID 896) | 1 | 19 | 21.1 | 16.8 | inactive |
| TMEM255B (GeneID 348013) | 1 | 1.1 | 17.5 | -15.3 | inactive |
| JMJD8 (GeneID 339123) | 0 | 9.9 | 23.4 | -3.6 | inactive |
| GTPBP2 (GeneID 54676) | 0 | -1.1 | 3.1 | -5.2 | inactive |
| GP1BA (GeneID 2811) | 0 | 9.6 | -2.1 | 21.3 | inactive |
| ZNF343 (GeneID 79175) | 0 | -9.6 | -12.8 | -6.3 | inactive |
| SGSH (GeneID 6448) | 0 | 3.3 | 7.5 | -1 | inactive |
| ADAM28 (GeneID 10863) | 0 | 0 | -13.1 | 13.1 | inactive |
| LOC441513 | 0 | -1.5 | -2 | -1 | inactive |
| KRTAP2-4 (GeneID 85294) | 0 | -10.2 | -11.4 | -9 | inactive |
| RAPGEF3 (GeneID 10411) | 0 | -0.2 | 3.2 | -3.7 | inactive |
| STAC2 (GeneID 342667) | 0 | 0.4 | 5 | -4.2 | inactive |
| ZNF223 (GeneID 7766) | 1 | 13.6 | 13.9 | 13.2 | inactive |
| MICU2 (GeneID 221154) | -1 | -3.5 | 7.4 | -14.4 | inactive |
| LOC440315 | 0 | 8.4 | 11.7 | 5.1 | inactive |
| CRTC3 (GeneID 64784) | -1 | -4.4 | 6.8 | -15.7 | inactive |
| GPR108 (GeneID 56927) | 0 | -3.4 | 3.5 | -10.4 | inactive |
| ANKRD16 (GeneID 54522) | 2 | 10 | 11.2 | 8.7 | active |
| NPB (GeneID 256933) | 0 | 0.8 | 0.9 | 0.7 | inactive |
| NIPAL1 (GeneID 152519) | -1 | -10.8 | -18.3 | -3.2 | inactive |
| USP21 (GeneID 27005) | 0 | -3.3 | -18.1 | 11.5 | inactive |
| WWP2 (GeneID 11060) | 0 | -9.2 | -5.3 | -13 | inactive |
| LOC441379 | 0 | 1.4 | 8.3 | -5.5 | inactive |
| H2BC17 (GeneID 8348) | -1 | -12.2 | -22 | -2.4 | inactive |
| GSK3B (GeneID 2932) | 0 | 0.6 | 4.1 | -2.8 | inactive |
| ZBTB7B (GeneID 51043) | 0 | -2.6 | -0.2 | -5 | inactive |
| SPACA7 (GeneID 122258) | 0 | 8.5 | 8.2 | 8.7 | inactive |
| LRRC40 (GeneID 55631) | -1 | -12.7 | -12.9 | -12.4 | inactive |
| ANK2 (GeneID 287) | 1 | 16.6 | 27.9 | 5.3 | inactive |
| CHN1 (GeneID 1123) | 0 | -1.3 | 8.5 | -11.2 | inactive |
| POU2AF2 (GeneID 341032) | 1 | 15.3 | 29.1 | 1.5 | inactive |
| HOXB8 (GeneID 3218) | 0 | 13.3 | 22.7 | 3.9 | inactive |
| MYORG (GeneID 57462) | -1 | -27.8 | -39.2 | -16.4 | inactive |
| LOC401823 | 1 | 1 | 12.6 | -10.7 | inactive |
| OR52B4 (GeneID 143496) | 0 | -4.8 | -8.9 | -0.7 | inactive |

No new results follow: an excerpt of the list.
| gene knocked down | two-siRNA summed score (-2 to +2) | mean protection from cisplatin (shift in death) (%) | protection from cisplatin (shift in death), siRNA C (%) | protection from cisplatin (shift in death), siRNA D (%) | Call |
| --- | --- | --- | --- | --- | --- |
| POU2AF2 (GeneID 341032) | 1 | 15.3 | 29.1 | 1.5 | inactive |
| HOXB8 (GeneID 3218) | 0 | 13.3 | 22.7 | 3.9 | inactive |
| MYORG (GeneID 57462) | -1 | -27.8 | -39.2 | -16.4 | inactive |
| LOC401823 | 1 | 1 | 12.6 | -10.7 | inactive |
| OR52B4 (GeneID 143496) | 0 | -4.8 | -8.9 | -0.7 | inactive |
